The subject of this data set is p1. The data set can be described thus: p1 copy number by p1-encoded mKate2 fluorescence. As to conditions: p1-encoded mKate2, flow cytometry, OR-Y24 strains, calibration curve. It counts as cell-based, S. cerevisiae. Here is the method:
A calibration curve was established to correlate p1 copy number, determined via quantitative PCR (qPCR), with fluorescence of p1-encoded mKate2 (Table 1). Five TP-DNAP1 variants representing a wide range of copy numbers were transformed into ORY24 and passaged until w.t. p1 was displaced. The five OR-Y24 strains were grown to saturation, diluted 1:10,000 to mimic p1 fluctuation tests, and grown in triplicate 100 μL cultures and duplicate 40 mL cultures. 100 μL saturated cultures were subject to fluorescence measurement of mKate2 (ex/em=561 nm/620 nm, bandwidth=15 nm) on a flow cytometer (Invitrogen Attune NxT). Whole-cell DNA extracts were prepared from 40 mL cultures and used as templates for qPCR measurement of p1-encoded leu2 (Q180*), as described previously (Ravikumar et al., 2014). p1-encoded LEU2 was PCR amplified with qPCR-Leu2F and qPCR Leu2R; and genomic LEU3 was PCR amplified with qPCR-Leu3F and qPCR-Leu3R using SyBR Green (Fisher Scientific) master mix.
To assay p1 copy number for large-scale p1 fluctuation tests, additional replicates of OR-Y24 strains were grown from the 1:10,000 dilution in triplicate and saturated cultures were subject to fluorescence measurement via flow cytometry. Fluorescence measurements were converted to copy number with the linear calibration curve.
To assay relative p1 copy number for small-scale p1 fluctuation tests, an additional 200 μL culture of OR-Y24 strains were grown from the 1:10,000 dilution. 200 μL saturated cultures were subject to an OD600 measurement and fluorescence measurement of mKate2 (ex/em=588 nm/633 nm), using a microplate reader (TECAN Infinite M200 PRO). A linear relationship was assumed between p1 copy number and OD600-normalized mKate2 fluorescence. Copy numbers were calculated from normalization to a w.t. TP-DNAP1 control.
For a few large-scale p1 fluctuation tests, p1 copy number was assayed by the method of small scale p1 fluctuation tests (i.e. microplate reader measurement). For these experiments, mutant TP-DNAP1 p1 copy numbers were calculated by normalization to a w.t. TP-DNAP1 control. The copy number of this control was assumed to be the average w.t. TP-DNAP1 copy number from all large-scale p1 fluctuation tests that used flow cytometry measurements.
TP-DNAP1 plasmids were isolated from these strains and subject to Sanger sequencing. 210 unique variants were identified and the corresponding plasmids were re-transformed into OR-Y24. Transformed strains were passaged in SC-UH until w.t. p1 was displaced, and subject to p1 copy number measurement in triplicate. Four high copy variants were directly subject to qPCR measurements for validation. To test the suppressor activity of the G410H mutation, which yields increased p1 copy number, this amino acid change was added to several low-activity TP-DNAP1 variants. p1 copy number was similarly assayed for these strains.

Where a chain is given by its changes, count along the chain named. In names and notes the source's numbering stands. Several values for one entry are separate records, joined by “and”; a condition that tells them apart may be missing. Equal entries are not always repeated.

B1: I777K: TP-DNAP1 variant, encoded by SEQ ID NO:3 (protein)
chain: MDYKDKALNDLRNVYADFDSLPLDFRQILIKDRATLLQKEDVEKKILERQEDAKKYAEYLKQSEIPERISLPNIKRHKGVSISFEETSEDMVLEPRPFIFDGLNIRCFRRETIFSLKNKILNMVKESSSFKNVSRQSVSFMYFKIFNKGKVIASTKSVNIYEDKIDERLEDLCNNFDDVLKKIIDVTYGYESLFVSETYSYVIFYAKSIYFPQPRCVNNWGNNIPNILTFDSFKLFTANKNNVSCIKQCSRFLWQKDFNTLEEMIEYKNGNICIVTPQLHINDVRDIKSFNDIRLYSESPIKTFSVIDNTITYLFYFKEHLGVIFNITKSRHDRRVTKFSPLSKFSDVKNITVCFDIESYFDPEKESNQVNIPFICCASIIYNKVIGNIVDFEGRDCVAQMIEYVVDICGELNISSVELIAHNGGGYDFHYILSSMYNPAAIKNILIRNNSFISFNFAHDGVKFSVKDSYSFLLCSLANASKAFLNEETFKKTDFPHHDLKTADDLYKVYKEWSSVNTEINHVVEKEKLLITSEHIVNFTKNDKSKTLIEWSKDYCRNDVLVLSKVWLEFKNAVEDIFNCELVDQTMTLAGLSYKLFQANMPFDVELRHPNKEDYFNMREALIGGRCISVNGIYKDVLCLDVKSLYPASMAFYDQPYGSFKRVSSRPKDELGIYYVRVTPNRNNKSNFFPIRSHNKITYNNFEESTYIAWYTNVDIDIGLSEGHNIEYIPFDSYGNIGYSWSKKGKIFEKYIKDVLYKLKIKYEKQNNKVKRNVIKKIMNSLWGKFAQKWVNFEYFIKSEDDIDFESEEAYKIWDTDFMLIKKIKESTYSSKPIQNGVFTLSWARYHMKSIWDAGAKEGAECIYSDTDSIFVHKEHFKKNAKFMLNGLKVPIIGSEVGQLELECEFDKLLCAGKKQYMGFYTYFQDGKPCIKEKKRFKGIPSNYIIPELYAHLLSGADKEAKIQFLKFRREWGSVKGYIENKTVKAT
For B1, the “mKate2 fluorescence (a.u.)” value is 1064.79 a.u. and 1192.83 a.u.

B2: I777K, L900S: TP-DNAP1 variant, encoded by SEQ ID NO:7 (protein, listed as Kluyveromyces lactis)
chain: B1 chain with L900S
In the case of B2, the “mKate2 fluorescence (a.u.)” value is 601.91 a.u. and 617.55 a.u.

B3: L474W, L640Y, I777K, W814N: TP-DNAP1 variant, encoded by SEQ ID NO:9 (protein, listed as Kluyveromyces lactis)
chain: B1 chain with L474W, L640Y, W814N
As for B3, the “mKate2 fluorescence (a.u.)” value (L640Y, I777K) is 298.97 a.u. and 180.05 a.u.

B4: w.t.: wild-type Kluyveromyces lactis DNA polymerase TP-DNAP1, SEQ ID NO:1 (protein, listed as Kluyveromyces lactis)
chain: B1 chain with K777I
B4: the “mKate2 fluorescence (a.u.)” value is 1455.5 a.u. and 1650.14 a.u.

B5: TP-DNAP1-4-2: TP-DNAP1 variant (L477V, L640Y, I777K, W814N), encoded by SEQ ID NO:11 (protein, listed as Kluyveromyces lactis)
chain: B1 chain with L477V, L640Y, W814N
In the case of B5, where the note is “L640Y, I777K, W614N”, the “mKate2 fluorescence (a.u.)” value is 288.24 a.u. and 233.35 a.u.

(Values after patent US20230242902A1, “A HIGHLY ERROR-PRONE […] R[…] FOR TARGETED CONTINUOUS EVOLUTION IN VIVO” (The Regents of the University of California, priority 2017, published 2023).)
